{"source": "patent US12295936B2", "about": "“Immunomodulating urea azalides” (Zoetis Services LLC, priority 2020, dated 2025)", "key": {"[1]": {"tested_on": "M. haemolytica", "assay": "In-vitro MIC model (CLSI broth micro-dilution)", "conditions": "M. haemolytica (116) lung isolates at necropsy, natural BRD study"}, "[2]": {"tested_on": "P. multocida", "assay": "In-vitro MIC model (CLSI broth micro-dilution)", "parameters": "unit not given beside the values", "conditions": "P. multocida (33) lung isolates at necropsy, natural BRD study"}}, "note": "For at least one compound, name, drawing or mass did not settle the structure.", "data": [{"smiles": "CCCN1C[C@H](C)[C@@H](O)[C@](C)(O)[C@@H](CC)OC(=O)[C@H](C)[C@@H](O[C@H]2C[C@@](C)(OC)[C@@H](O)[C@H](C)O2)[C@H](C)[C@@H](O[C@@H]2O[C@H](C)C[C@H](N(C)C)[C@H]2O)[C@](C)(O)C[C@H]1C", "note": "[gamithromycin (Zactran)]", "values": [{"measurement": "MIC Range", "setting": "[1]", "value": "0.5->64"}, {"measurement": "MIC Range", "setting": "[2]", "value": "0.5->64"}]}]}
